Data published in publication PMC7810988, “Inositol pyrophosphates promote the interaction of SPX domains with the coiled-coil motif of PHR transcription factors to regulate plant phosphate homeostasis” (Nature Communications, 2021).

Molecular target: plant brassinosteroid receptor kinase BRI1 (yeast two-hybrid)
Assay: two-hybrid; BRI1 and BKI1 in wild-type, Δvip1 and Δkcs1 yeast; which was bait is not stated

B1: inhibitor protein BKI1 (yeast two-hybrid) (protein, UniProt Q9FMZ0 1-337)
chain: METNLQQVKNSSQTFSEKQNPKQEASPSPISSTCSSPSHDFSFTISLQPLSSSSKHISPTLRSPSKTTSSYQQTDPFAVDLSPADEIFFHGHLLPLHLLSHLPVSPRTSTGSYNDGFTLPVKDILPDQPTNNNNNTENAITNISTEAKDDNTEDKAEGEIRVKTKPIKSFSLFGLSKWRKGFESNEREQEQQQQKIKKPMSLDLSHAVKKYIRMLFQKRGNGTQFWNRRQTSSYSFSSSLMGPNGNSKTMINGSYNKRDLIRGRRGELFSAPASMRTSPTNSGHLRVSTAGLSSSSGSTSSSSSDSTMEELQAAIQAAIAHCKNSSAVDRDDKVKDS
In the case of B1, the binding is reported as “binds”.

Results are given in words; binding and its absence hold for the method and conditions named. Binding can be weak; no strength is given.
